These are yes or no findings as the source states them, for the method shown. Some binding calls cover weakened binding; strength is not graded here.

Chains of the proteins cited; added tags and fusions are not shown. Residues count along the entry.
UniProt Q9GZV9, residues 25-251: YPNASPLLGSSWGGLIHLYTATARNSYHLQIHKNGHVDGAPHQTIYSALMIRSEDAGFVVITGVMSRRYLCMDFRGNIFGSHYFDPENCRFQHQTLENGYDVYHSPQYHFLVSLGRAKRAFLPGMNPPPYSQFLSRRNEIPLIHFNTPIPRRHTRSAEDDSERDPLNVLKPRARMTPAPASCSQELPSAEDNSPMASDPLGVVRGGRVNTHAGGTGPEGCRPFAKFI

First the molecules themselves.
B1: antibody D105A (antibody, human IgG1, V domains shown)
VH: QVQLVQSGAEVKKPGASVKVSCKASGYTFTNHYMHWVRQAPGQGLEWMGIINPISGSTSNAQKFQGRVTMTRDTSTSTVYMELSSLRSEDTAVYYCARDIVDAFAFWGQGTMVTVSS
VL: AIQLTQSPSSLSASVGDRVTITCRASQGISSALVWYQQKPGKAPKLLIYDASSLESGVPSRFSGSGSGTDFTLTISSLQPEDFATYYCQQFNDYFTFGPGTKVDIK
B2: antibody D105V (antibody, human IgG1, V domains shown)
VH: QVQLVQSGAEVKKPGASVKVSCKASGYTFTNHYMHWVRQAPGQGLEWMGIINPISGSTSNAQKFQGRVTMTRDTSTSTVYMELSSLRSEDTAVYYCARDIVDAFVFWGQGTMVTVSS
VL: AIQLTQSPSSLSASVGDRVTITCRASQGISSALVWYQQKPGKAPKLLIYDASSLESGVPSRFSGSGSGTDFTLTISSLQPEDFATYYCQQFNDYFTFGPGTKVDIK
B3: antibody D105M (antibody, human IgG1, V domains shown)
VH: QVQLVQSGAEVKKPGASVKVSCKASGYTFTNHYMHWVRQAPGQGLEWMGIINPISGSTSNAQKFQGRVTMTRDTSTSTVYMELSSLRSEDTAVYYCARDIVDAFMFWGQGTMVTVSS
VL: AIQLTQSPSSLSASVGDRVTITCRASQGISSALVWYQQKPGKAPKLLIYDASSLESGVPSRFSGSGSGTDFTLTISSLQPEDFATYYCQQFNDYFTFGPGTKVDIK
B4: antibody D105L (antibody, human IgG1, V domains shown)
VH: QVQLVQSGAEVKKPGASVKVSCKASGYTFTNHYMHWVRQAPGQGLEWMGIINPISGSTSNAQKFQGRVTMTRDTSTSTVYMELSSLRSEDTAVYYCARDIVDAFLFWGQGTMVTVSS
VL: AIQLTQSPSSLSASVGDRVTITCRASQGISSALVWYQQKPGKAPKLLIYDASSLESGVPSRFSGSGSGTDFTLTISSLQPEDFATYYCQQFNDYFTFGPGTKVDIK
B5: antibody D105N (antibody, human IgG1, V domains shown)
VH: QVQLVQSGAEVKKPGASVKVSCKASGYTFTNHYMHWVRQAPGQGLEWMGIINPISGSTSNAQKFQGRVTMTRDTSTSTVYMELSSLRSEDTAVYYCARDIVDAFNFWGQGTMVTVSS
VL: AIQLTQSPSSLSASVGDRVTITCRASQGISSALVWYQQKPGKAPKLLIYDASSLESGVPSRFSGSGSGTDFTLTISSLQPEDFATYYCQQFNDYFTFGPGTKVDIK
B6: antibody D105I (antibody, human IgG1, V domains shown)
VH: QVQLVQSGAEVKKPGASVKVSCKASGYTFTNHYMHWVRQAPGQGLEWMGIINPISGSTSNAQKFQGRVTMTRDTSTSTVYMELSSLRSEDTAVYYCARDIVDAFIFWGQGTMVTVSS
VL: AIQLTQSPSSLSASVGDRVTITCRASQGISSALVWYQQKPGKAPKLLIYDASSLESGVPSRFSGSGSGTDFTLTISSLQPEDFATYYCQQFNDYFTFGPGTKVDIK
B7: antibody D105S (antibody, human IgG1, V domains shown)
VH: QVQLVQSGAEVKKPGASVKVSCKASGYTFTNHYMHWVRQAPGQGLEWMGIINPISGSTSNAQKFQGRVTMTRDTSTSTVYMELSSLRSEDTAVYYCARDIVDAFSFWGQGTMVTVSS
VL: AIQLTQSPSSLSASVGDRVTITCRASQGISSALVWYQQKPGKAPKLLIYDASSLESGVPSRFSGSGSGTDFTLTISSLQPEDFATYYCQQFNDYFTFGPGTKVDIK
B8: antibody D105Q (antibody, human IgG1, V domains shown)
VH: QVQLVQSGAEVKKPGASVKVSCKASGYTFTNHYMHWVRQAPGQGLEWMGIINPISGSTSNAQKFQGRVTMTRDTSTSTVYMELSSLRSEDTAVYYCARDIVDAFQFWGQGTMVTVSS
VL: AIQLTQSPSSLSASVGDRVTITCRASQGISSALVWYQQKPGKAPKLLIYDASSLESGVPSRFSGSGSGTDFTLTISSLQPEDFATYYCQQFNDYFTFGPGTKVDIK
B9: antibody I100W (antibody, human IgG1, V domains shown)
VH: QVQLVQSGAEVKKPGASVKVSCKASGYTFTNHYMHWVRQAPGQGLEWMGIINPISGSTSNAQKFQGRVTMTRDTSTSTVYMELSSLRSEDTAVYYCARDWVDAFDFWGQGTMVTVSS
VL: AIQLTQSPSSLSASVGDRVTITCRASQGISSALVWYQQKPGKAPKLLIYDASSLESGVPSRFSGSGSGTDFTLTISSLQPEDFATYYCQQFNDYFTFGPGTKVDIK
B10: antibody I100A (antibody, human IgG1, V domains shown)
VH: QVQLVQSGAEVKKPGASVKVSCKASGYTFTNHYMHWVRQAPGQGLEWMGIINPISGSTSNAQKFQGRVTMTRDTSTSTVYMELSSLRSEDTAVYYCARDAVDAFDFWGQGTMVTVSS
VL: AIQLTQSPSSLSASVGDRVTITCRASQGISSALVWYQQKPGKAPKLLIYDASSLESGVPSRFSGSGSGTDFTLTISSLQPEDFATYYCQQFNDYFTFGPGTKVDIK
B11: antibody D105R (antibody, human IgG1, V domains shown)
VH: QVQLVQSGAEVKKPGASVKVSCKASGYTFTNHYMHWVRQAPGQGLEWMGIINPISGSTSNAQKFQGRVTMTRDTSTSTVYMELSSLRSEDTAVYYCARDIVDAFRFWGQGTMVTVSS
VL: AIQLTQSPSSLSASVGDRVTITCRASQGISSALVWYQQKPGKAPKLLIYDASSLESGVPSRFSGSGSGTDFTLTISSLQPEDFATYYCQQFNDYFTFGPGTKVDIK
B12: antibody D105T (antibody, human IgG1, V domains shown)
VH: QVQLVQSGAEVKKPGASVKVSCKASGYTFTNHYMHWVRQAPGQGLEWMGIINPISGSTSNAQKFQGRVTMTRDTSTSTVYMELSSLRSEDTAVYYCARDIVDAFTFWGQGTMVTVSS
VL: AIQLTQSPSSLSASVGDRVTITCRASQGISSALVWYQQKPGKAPKLLIYDASSLESGVPSRFSGSGSGTDFTLTISSLQPEDFATYYCQQFNDYFTFGPGTKVDIK
B13: antibody D105Y (antibody, human IgG1, V domains shown)
VH: QVQLVQSGAEVKKPGASVKVSCKASGYTFTNHYMHWVRQAPGQGLEWMGIINPISGSTSNAQKFQGRVTMTRDTSTSTVYMELSSLRSEDTAVYYCARDIVDAFYFWGQGTMVTVSS
VL: AIQLTQSPSSLSASVGDRVTITCRASQGISSALVWYQQKPGKAPKLLIYDASSLESGVPSRFSGSGSGTDFTLTISSLQPEDFATYYCQQFNDYFTFGPGTKVDIK
B14: antibody D105W (antibody, human IgG1, V domains shown)
VH: QVQLVQSGAEVKKPGASVKVSCKASGYTFTNHYMHWVRQAPGQGLEWMGIINPISGSTSNAQKFQGRVTMTRDTSTSTVYMELSSLRSEDTAVYYCARDIVDAFWFWGQGTMVTVSS
VL: AIQLTQSPSSLSASVGDRVTITCRASQGISSALVWYQQKPGKAPKLLIYDASSLESGVPSRFSGSGSGTDFTLTISSLQPEDFATYYCQQFNDYFTFGPGTKVDIK
B15: antibody D105K (antibody, human IgG1, V domains shown)
VH: QVQLVQSGAEVKKPGASVKVSCKASGYTFTNHYMHWVRQAPGQGLEWMGIINPISGSTSNAQKFQGRVTMTRDTSTSTVYMELSSLRSEDTAVYYCARDIVDAFKFWGQGTMVTVSS
VL: AIQLTQSPSSLSASVGDRVTITCRASQGISSALVWYQQKPGKAPKLLIYDASSLESGVPSRFSGSGSGTDFTLTISSLQPEDFATYYCQQFNDYFTFGPGTKVDIK
B16: antibody D105H (antibody, human IgG1, V domains shown)
VH: QVQLVQSGAEVKKPGASVKVSCKASGYTFTNHYMHWVRQAPGQGLEWMGIINPISGSTSNAQKFQGRVTMTRDTSTSTVYMELSSLRSEDTAVYYCARDIVDAFHFWGQGTMVTVSS
VL: AIQLTQSPSSLSASVGDRVTITCRASQGISSALVWYQQKPGKAPKLLIYDASSLESGVPSRFSGSGSGTDFTLTISSLQPEDFATYYCQQFNDYFTFGPGTKVDIK
B17: antibody D105G (antibody, human IgG1, V domains shown)
VH: QVQLVQSGAEVKKPGASVKVSCKASGYTFTNHYMHWVRQAPGQGLEWMGIINPISGSTSNAQKFQGRVTMTRDTSTSTVYMELSSLRSEDTAVYYCARDIVDAFGFWGQGTMVTVSS
VL: AIQLTQSPSSLSASVGDRVTITCRASQGISSALVWYQQKPGKAPKLLIYDASSLESGVPSRFSGSGSGTDFTLTISSLQPEDFATYYCQQFNDYFTFGPGTKVDIK
B18: antibody D105E (antibody, human IgG1, V domains shown)
VH: QVQLVQSGAEVKKPGASVKVSCKASGYTFTNHYMHWVRQAPGQGLEWMGIINPISGSTSNAQKFQGRVTMTRDTSTSTVYMELSSLRSEDTAVYYCARDIVDAFEFWGQGTMVTVSS
VL: AIQLTQSPSSLSASVGDRVTITCRASQGISSALVWYQQKPGKAPKLLIYDASSLESGVPSRFSGSGSGTDFTLTISSLQPEDFATYYCQQFNDYFTFGPGTKVDIK
B19: antibody I100Y (antibody, human IgG1, V domains shown)
VH: QVQLVQSGAEVKKPGASVKVSCKASGYTFTNHYMHWVRQAPGQGLEWMGIINPISGSTSNAQKFQGRVTMTRDTSTSTVYMELSSLRSEDTAVYYCARDYVDAFDFWGQGTMVTVSS
VL: AIQLTQSPSSLSASVGDRVTITCRASQGISSALVWYQQKPGKAPKLLIYDASSLESGVPSRFSGSGSGTDFTLTISSLQPEDFATYYCQQFNDYFTFGPGTKVDIK
B20: antibody D105P (antibody, human IgG1, V domains shown)
VH: QVQLVQSGAEVKKPGASVKVSCKASGYTFTNHYMHWVRQAPGQGLEWMGIINPISGSTSNAQKFQGRVTMTRDTSTSTVYMELSSLRSEDTAVYYCARDIVDAFPFWGQGTMVTVSS
VL: AIQLTQSPSSLSASVGDRVTITCRASQGISSALVWYQQKPGKAPKLLIYDASSLESGVPSRFSGSGSGTDFTLTISSLQPEDFATYYCQQFNDYFTFGPGTKVDIK
B21: antibody D105F (antibody, human IgG1, V domains shown)
VH: QVQLVQSGAEVKKPGASVKVSCKASGYTFTNHYMHWVRQAPGQGLEWMGIINPISGSTSNAQKFQGRVTMTRDTSTSTVYMELSSLRSEDTAVYYCARDIVDAFFFWGQGTMVTVSS
VL: AIQLTQSPSSLSASVGDRVTITCRASQGISSALVWYQQKPGKAPKLLIYDASSLESGVPSRFSGSGSGTDFTLTISSLQPEDFATYYCQQFNDYFTFGPGTKVDIK

The target of this test is Recombinant Human FGF-23 (R&D Systems, Cat No. 2604-FG-025/CF) (human) (UniProt Q9GZV9). The test can be described thus: SPR, antibody captured by anti-human IgG, FGF-23 analyte. On the technique in general: Surface plasmon resonance follows binding to a sensor surface in real time, without labels.
In the case of B1, the binding entry was “binds”.

Regarding B2, the binding result is “binds”.

For B3, the binding result is “binds”.

As to B4, the binding entry is on record as “binds”.

With B5, the binding result is reported as “binds”.

Take B6: the binding entry is “binds”.

Take B7: the binding entry is reported as “binds”.

For the molecule B8, the binding result is given as “binds”.

As to B9, the binding result was “binds”.

For B10, the binding result is reported as “binds”.

Consider B11, for which the binding entry was “binds”.

Regarding B12, the binding result is “binds”.

Regarding B13, the binding result is “binds”.

B14: the binding entry is “binds”.

For the molecule B15, the binding result is given as “binds”.

For the molecule B16, the binding entry is “binds”.

In the case of B17, the binding entry is recorded as “binds”.

For the molecule B18, the binding entry was “binds”.

For the molecule B19, the binding entry was “binds”.

B20: the binding result is reported as “binds”.

B21: the binding result was “binds”.
